Measured values published in patent US20240207373A1, “CYCLIC PEPTIDES FROM THE C-TERMINUS OF ACETYLCHOLINESTERASE FOR TREATMENT OF SKIN DISORDERS AND FOR COSMETICAL USE” (priority 2020, published 2024).
Not every detail of the peptide structures is certain; ends, links or a residue may be inferred. Where no end group is shown, it is not given here.

Experiments:
[1] = tested on: keratinocyte cell line HaCaTs; experiment: Intracellular calcium influx in keratinocyte cell line HaCaTs; type: cell-based, human; conditions: peptide applied alone to keratinocyte cell line; FIG. 2
Description: As described in the examples, the inventors performed intracellular calcium imaging and cell proliferation assays on the keratinocyte cell line, HaCaTs, a widely used and characterized model for human keratinocytes.
The inventors examined the ability of the acetylcholinesterase-derived linear peptides, T30 and T15, and the cyclic peptide NBP-14, to induce intracellular calcium influx into the keratinocyte cell line, and the results are shown in FIG. 2.

HaCaT cell line = experiment: Proliferation of the keratinocyte cell line HaCaTs; type: cell-based, human; conditions: HaCaT cells, compared to untreated controls (no peptide); FIG. 3B

| Sequence | induction of intracellular calcium influx [1] | cell proliferation (HaCaT cell line) |
| --- | --- | --- |
| KAEFHRWSSYMVHWKNQFDHYSKQDRCSDL [T30] | induced an increase in intracellular calcium | significantly induced proliferation |
| NQFDHYSKQDRCSDL [T15] | did not induce a raise of intracellular calcium | did not alter cell proliferation |
